This test in a line: qHTS Assay for Modulators of Lamin A Splicing. The note with it: HeLa LMNA splicing GFP/RFP minigene ratio, 48 h. An outline of the steps: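 Read-out is the ratio of GFP to DsRed2 object intensity, acquired by 488 nm laser-scanning cytometry on HeLa lamin A-EGFP minigene reporter cells. Compound incubation 48 hrs at 37 °C in Opti-MEM with 2% FBS; DMSO 0.5% final.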
On the technique in general: In qHTS, concentration-response curves come from the screen itself.

Setting [1] is: measured here: GFP splicing reporter channel.
[2] abbreviates: measured here: RFP viability control channel.

We go through 35 compounds from PubChem BioAssay AID1487 (National Center for Advancing Translational Sciences (NCATS), 2009).

Broadly, the AC50 is the concentration giving half of the maximal activity seen.

Each structure is given as a SMILES string. Values joined by “and” are separate entries in the source; they are usually repeats but may differ in a detail not shown here. Equal entries are not always repeated. The list shows a part of the results. The main result of the screen is listed elsewhere. These columns were measured beside it and carry no call. The list favours compounds with an active or inconclusive main result. Potencies come from curve fits of mixed quality, noted in brackets.

`CSCCC(=O)N1CCCC(CNC(=O)c2ccc(-c3ccccc3)cc2)C1` (configuration not stated): the AC50 under setting [1] was 35.5 µM [falling, single point].
Consider `Fc1ccc(N/N=C/c2cccnc2)c(F)c1`, for which the AC50 is 1.26 µM [rising, full curve, poor fit] under setting [1] and 11.2 µM [rising, partial curve] under setting [2].
In the case of `CCOC(=O)N1CCC(=NNC(=O)c2ccc(O)cc2)CC1`, the AC50 under setting [2] was 20 µM [rising, partial curve].
In the case of `CCOc1ccc(-n2c(SCc3ccc(C(=O)OC)o3)nc3c([nH]c4ccccc43)c2=O)cc1`, the AC50 is, setting by setting: under setting [1], 7.94 µM [falling, partial curve]; under setting [2], 11.2 µM [falling, single point].
On to `O=C(Nc1ccc(-c2cn3ccsc3n2)cc1)C1COc2ccccc2O1` (configuration not stated), for which the AC50 is 22.4 µM [rising, partial curve, poor fit] under setting [1] and 35.5 µM [rising, single point] under setting [2].
For `O=C(C1CC1)N1CCN(S(=O)(=O)c2ccc3c(c2)OCCO3)CC1`, the AC50 reads like this: under setting [1], 35.5 µM [falling, partial curve]; under setting [2], 22.4 µM [falling, partial curve, poor fit].
As for `COc1ccc(NC(=O)OCCN2CCN(Cc3ccccc3)CCC2=O)cc1`, the AC50 under setting [2] was 3.98 µM [rising, single point].
As to `O=C(C1CCCCC1)N1CC(=O)N2CCc3ccccc3[C@@H]2C1`, the AC50 under setting [2] was 0.2 µM [falling, single point].
Same read-out and setting: then `CCOc1cc(/C=C/C(=O)c2ccc(O)cc2)ccc1OCC(=O)N(C)C`, with 11.2 µM [rising, partial curve, poor fit]; and `Oc1ccc(Cn2cc[nH]c2=S)cc1`, with 0.000794 µM [falling, full curve, poor fit]; and `Cc1cc(C(=O)C(C)OC(=O)C2=NNC(=O)CC2)c(C)n1-c1ccc(OC(F)F)cc1` (configuration not stated), with 25.1 µM [rising, single point].
For `Cc1c(NC(=O)Cc2ccccc2)cccc1C(=O)NN1C(=O)c2ccccc2C1=O`, the AC50 under setting [2] is 0.0562 µM [rising, full curve, poor fit].
On the same count and under the same terms, then `O=C(Nc1ccn(Cc2cccc3ccccc23)n1)c1cccnc1`, with 7.08 µM [rising, full curve, poor fit].
`O=C(CN1CCC(n2nnc3cc(F)ccc32)CC1)N1CCc2ccccc2C1`: the AC50 runs as follows: under setting [1], 28.2 µM [rising, single point]; under setting [2], 12.6 µM [rising, partial curve, poor fit].
As to `COc1cc(NC(=O)CCn2c(-c3ccccc3)cc(C(C)=O)c2C)cc(OC)c1`, the AC50 under setting [1] is 0.708 µM [rising, full curve, poor fit].
Regarding `COc1ccccc1N1CCN(C(=O)c2oc3cc(C)c(C)cc3c2C)CC1`, the AC50 under setting [2] was 12.6 µM [rising, single point].
As for `COc1cccc(/C=N/Nc2cc(C)nc(-c3ccccc3O)n2)c1O`, the AC50 was 3.16 µM [falling, partial curve, poor fit] under setting [1] and 3.16 µM [falling, partial curve] under setting [2].
Turning to `Cc1cc(C(=O)COC(=O)C2CC2)c(C)n1-c1ccc(F)cc1`, the AC50 under setting [1] is 3.16 µM [rising, full curve, poor fit].
Regarding `CC(C)C(NC(=O)C1CCCCC1)C(=O)Nc1ccc2c(c1)OCCO2` (configuration not stated), the AC50 under setting [1] was 3.98 µM [rising, partial curve, poor fit].
On to `Cc1nn(S(=O)(=O)N2CCOCC2)c(C)c1Br`, for which the AC50 under setting [2] is 3.16 µM [falling, partial curve, poor fit].
Still for that read-out and setting: then `CCN(c1cccc(C)c1)S(=O)(=O)c1ccc2c3c(cccc13)C(=O)N2`, with 6.31 µM [rising, partial curve, poor fit].
Consider `O=C(COc1ccccc1)NCc1ccc2c(c1)CCN2C(=O)c1ccc(F)cc1`, for which the AC50 under setting [2] was 1.12 µM [rising, partial curve, poor fit].
Take `Oc1cc(-n2cccn2)c(O)cc1-n1cccn1`: the AC50 runs as follows: under setting [1], 7.94 µM [falling, single point]; under setting [2], 14.1 µM [falling, single point].
On to `Cc1c2ccccc2nc2c(F)c(N(C)C)c(F)c(F)c12`, for which the AC50 by setting is: under setting [1], 17.8 µM [falling, partial curve]; under setting [2], 12.6 µM [falling, single point].
Consider `CCOC(=O)c1cnc(-c2ccccc2)nc1N(C)C`, for which, under setting [1], the AC50 was 3.55 µM [falling, partial curve].
In the case of `Cc1ccc(NC(=O)c2cc(S(=O)(=O)NCCC3=CCCCC3)ccc2F)cc1F`, the AC50 is 35.5 µM [falling, single point] and 35.5 µM [falling, partial curve] under setting [1]; 3.16 µM [falling, single point] and 8.91 µM [falling, partial curve, poor fit] under setting [2].
For the compound `N#Cc1ccc(Oc2nc(C#N)cc(-c3ccccc3)n2)cc1`, under setting [2], the AC50 is 11.2 µM [rising, partial curve].
With `Cc1cc(C)c(COCc2cc(/C=N/O)c(C)cc2C)cc1/C=N/O`, the AC50 is, setting by setting: under setting [1], 12.6 µM [rising, single point]; under setting [2], 14.1 µM [rising, single point].
Regarding `Cc1ccc(N2CCN(c3ccc(C)cc3)C2c2ccncc2)cc1`, the AC50 under setting [2] was 31.6 µM [rising, single point].
Take `COC(=O)c1ccccc1NC(=O)CN1CCC(C(=O)c2ccc3c(c2)OCCO3)CC1`: the AC50 under setting [1] is 12.6 µM [rising, single point].
Take `Cc1nn(-c2ccccc2)c2sc(-c3nnc(SCC(=O)O)o3)cc12`: the AC50 was 35.5 µM [falling, single point] under setting [1] and 35.5 µM [falling, single point] under setting [2].
Consider `Cc1cc(Nc2nc3ccccc3nc2Cl)n(-c2ccccc2C)n1`, for which the concentration at half-maximal activity (AC50) is 22.4 µM [rising, single point] under setting [1] and 25.1 µM [rising, single point] under setting [2].
As to `Cc1ccc(Cl)cc1N1CCN(C(=O)C2CCN(S(=O)(=O)c3c(C)nn(C)c3C)CC2)CC1`, the AC50 under setting [2] was 20 µM [rising, single point].
Still for that read-out and setting: next, `CC(C)(C)C(=O)Nc1ccccc1C(=O)NCc1ccco1`: 12.6 µM [rising, single point]; `O=C(CCN1CCN(C(c2ccccc2)c2ccccc2)CC1)N/N=C/c1ccc(O)cc1O`: 35.5 µM [rising, single point].
